# These are yes or no findings as the source states them, for the method shown. Binding seen in cells or lysates may run through a third protein. Some results given as binding are weak or reduced against the parent protein; the word gives no strength.
# Chains of the proteins cited; added tags and fusions are not shown. Lines headed by an entry give the natural chain unless they say otherwise; changes in a name come on top.
# UniProt Q93009: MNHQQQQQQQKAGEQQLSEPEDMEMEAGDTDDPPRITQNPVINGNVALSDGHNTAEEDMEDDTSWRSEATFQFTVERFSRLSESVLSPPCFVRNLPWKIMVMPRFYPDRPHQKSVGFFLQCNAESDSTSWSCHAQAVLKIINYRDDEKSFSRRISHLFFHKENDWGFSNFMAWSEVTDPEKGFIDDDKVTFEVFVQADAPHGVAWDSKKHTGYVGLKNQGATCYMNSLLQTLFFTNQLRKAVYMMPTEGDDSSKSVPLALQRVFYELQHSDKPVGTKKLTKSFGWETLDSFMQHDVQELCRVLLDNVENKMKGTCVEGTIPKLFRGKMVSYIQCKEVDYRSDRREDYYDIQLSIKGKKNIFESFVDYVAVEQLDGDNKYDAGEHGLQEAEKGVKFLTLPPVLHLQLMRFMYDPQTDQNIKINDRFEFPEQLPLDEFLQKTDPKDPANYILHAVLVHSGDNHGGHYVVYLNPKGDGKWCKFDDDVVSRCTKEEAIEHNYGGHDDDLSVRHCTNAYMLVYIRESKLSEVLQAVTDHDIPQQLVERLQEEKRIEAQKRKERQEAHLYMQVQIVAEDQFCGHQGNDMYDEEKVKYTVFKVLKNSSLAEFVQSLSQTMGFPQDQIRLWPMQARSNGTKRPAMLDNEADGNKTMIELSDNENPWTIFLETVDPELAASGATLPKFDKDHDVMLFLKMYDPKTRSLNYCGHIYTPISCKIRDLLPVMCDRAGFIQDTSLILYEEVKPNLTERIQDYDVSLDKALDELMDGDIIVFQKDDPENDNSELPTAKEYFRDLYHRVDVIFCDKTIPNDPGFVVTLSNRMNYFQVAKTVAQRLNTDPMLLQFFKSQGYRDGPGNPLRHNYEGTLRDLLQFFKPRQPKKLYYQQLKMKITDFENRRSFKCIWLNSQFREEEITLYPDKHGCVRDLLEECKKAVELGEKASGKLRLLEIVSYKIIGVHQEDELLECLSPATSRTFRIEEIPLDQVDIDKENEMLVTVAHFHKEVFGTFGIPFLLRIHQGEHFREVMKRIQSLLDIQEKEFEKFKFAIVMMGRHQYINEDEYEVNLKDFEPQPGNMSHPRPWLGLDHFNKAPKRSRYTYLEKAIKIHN
# UniProt P98170: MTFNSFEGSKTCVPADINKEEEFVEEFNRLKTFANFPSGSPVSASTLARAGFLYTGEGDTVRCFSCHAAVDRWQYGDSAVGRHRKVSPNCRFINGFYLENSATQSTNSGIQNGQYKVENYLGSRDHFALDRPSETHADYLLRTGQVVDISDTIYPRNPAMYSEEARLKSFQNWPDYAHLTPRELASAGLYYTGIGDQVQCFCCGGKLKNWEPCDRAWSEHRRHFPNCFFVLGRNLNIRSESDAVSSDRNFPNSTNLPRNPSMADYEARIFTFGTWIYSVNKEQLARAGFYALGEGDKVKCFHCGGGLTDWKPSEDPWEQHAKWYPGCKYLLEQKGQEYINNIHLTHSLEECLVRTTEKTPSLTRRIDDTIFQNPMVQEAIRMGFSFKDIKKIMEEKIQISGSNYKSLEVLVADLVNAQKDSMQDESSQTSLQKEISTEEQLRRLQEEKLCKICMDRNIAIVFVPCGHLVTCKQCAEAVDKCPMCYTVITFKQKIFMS
# Tests used:
# [1] = molecular target: FLAG-USP7 (UniProt Q93009); assay: co-IP
# [2] = molecular target: GST-XIAP (UniProt P98170); assay: pull-down
# [3] = molecular target: endogenous XIAP (X-linked IAP) of HEK cells (human (endogenous in HEK)) (UniProt P98170); assay: co-IP
# [4] = molecular target: endogenous USP7 of HEK cells (human (endogenous in HEK)) (UniProt Q93009); assay: co-IP
# [5] = molecular target: His-XIAP (UniProt P98170); assay: pull-down
substance,measurement,setting,value
GFP-XIAP (from UniProt P98170 1-497),binding,[1],binds
Myc-His-USP7 (from UniProt Q93009 1-1102) (enzyme),binding,[2],binds
endogenous USP7 of HEK cells (from UniProt Q93009 1-1102) (enzyme),binding,[2],binds
same,binding,[3],binds
endogenous XIAP (X-linked IAP) of HEK cells (from UniProt P98170 1-497),binding,[4],binds
full-length USP7 (transfected in HEK cells beside the USP7 deletion mutants) (from UniProt Q93009 1-1102) (enzyme),binding,[5],binds
